Results as given in the supplement of paper PMC12889115.
Some of the results follow. These are raw signals, not scaled to a control.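 First-pass screen: polymyxin B was added at a level that permeabilizes the Salmonella outer membrane while sparing the inner membrane. DMSO wells, with and without polymyxin B, defined maximum growth. Because plates differed from one another, each plate's data were ranked separately and the compounds with the lowest OD600 were carried forward as hits.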

System: Salmonella enterica serovar Typhimurium SL1344
Assay: bacterial growth OD600 after 18 h with compound and polymyxin B; higher = more bacterial growth (less inhibition)
Conditions: 50 µM, Mueller-Hinton broth

SMILES	bacterial growth OD600 (polymyxin B 1 µg/mL)	bacterial growth OD600 (polymyxin B 0.75 µg/mL)
COc1cccc([C@@H](C)NCc2c(C(=O)N3CCOCC3)nc3c(C)cccn23)c1	1.09	
CCC(O)CN1C(=O)CCC1CCNCCOc1ccc(F)cc1 (stereo unspecified)		0.97
C[C@@H]1CN(C(=O)c2nc3sccn3c2CN2CCN(CC3CC3)CC2)C[C@H](C)O1	0.89	
COc1ccc2c(c1)OC(C)CN(Cc1ccc(SC)cc1)C2 (stereo unspecified)		0.093
COC(=O)[C@@H]1CCCN1C(=O)Cc1ccc(N2CCC(N[C@H]3CCCCNC3=O)CC2)cc1		0.941
Cc1csc(SCC(=O)N2CCCC(N3CCN(c4ccccc4C)CC3)C2)n1 (stereo unspecified)	0.844	
CN(Cc1cccnc1)C(=O)CC(c1cccc(O)c1)c1ccccc1Cl (stereo unspecified)	0.803	
CC(C)NC(=O)N1CCC2(CCCN(CC3CCCCC3)C2=O)C1 (stereo unspecified)	0.875	
COCc1ccc(CN2CCCC(CNC(=O)COc3ccccc3OC)C2)o1 (stereo unspecified)		0.802
Cc1nc(N2CCCC(C(=O)N(C)CC(O)c3ccccc3)C2)nc2cc(S(C)(=O)=O)ccc12 (stereo unspecified)		0.851
COc1ccc(OC2CCN(C3CCCC3)CC2)c(C(=O)N2CCCC(O)C2)c1 (stereo unspecified)	1.31	
COCc1noc(-c2ccc(N(Cc3cnn(C)c3)C(C)C)nc2)n1	0.987	
Cc1ccc(CN2CCN(Cc3cccn3-c3ccc(Cl)cn3)CC2CCO)cc1 (stereo unspecified)	0.613	
Cc1ccccc1NC(=O)Nc1ccnn1C1CCN(C(=O)c2ccoc2C)CC1	0.858	
CN(Cc1cnn(C)c1)C(=O)CC1(c2ccccc2)CC(=O)N(CCCOc2cccnc2)C1=O (stereo unspecified)		0.846
CC(=O)NCCC(=O)N1CCCC(CCc2ccccc2C(F)(F)F)C1 (stereo unspecified)	0.988	

SMILES	bacterial growth OD600 (polymyxin B 1 µg/mL)	bacterial growth OD600 (polymyxin B 0.75 µg/mL)
O=C(Cn1ccnc1)N1CCCC(CCc2ccc(F)cc2F)C1 (stereo unspecified)		0.788
O=C(NCC1CCCN(Cc2cc3c(cc2Cl)OCO3)C1)c1cccs1 (stereo unspecified)	0.877	
CCOC(=O)C1(Cc2cccc(Cl)c2)CCCN(C(=O)c2cc(C(C)C)nn2C)C1 (stereo unspecified)	0.417	
COc1ccc(C(CC(=O)N(C)Cc2nonc2C)c2ccccc2)cc1 (stereo unspecified)	0.581	
COc1ccc(-c2nc(CN(Cc3ccccc3)C[C@@H]3CCC(=O)N3)c(C)o2)cc1C		-0.002
CCN(CC)CCN(C)Cc1cnc(S(C)(=O)=O)n1CC1CCCO1 (stereo unspecified)	1.02	
CCN(CC)CCNC(=O)c1ccc(OC2CCN(S(C)(=O)=O)CC2)c(Cl)c1	1.35	
COc1cc(CN2CCN(Cc3cnc(SC)nc3)CC2CCO)cc(OC)c1 (stereo unspecified)	0.968	
COc1cccc(CNC(C)c2cnn(-c3ccc(F)cc3F)c2C)c1 (stereo unspecified)		0.804
CC(=O)c1ccc(OCC(=O)NCC2Cc3c(F)ccc(-c4ccncc4)c3O2)cc1 (stereo unspecified)		1
Cc1nc(N(C)C2CCCCC2)ncc1C(C)NC(=O)C1CCC1 (stereo unspecified)		0.615
CN1CCCC(O)(CN2CCC(C(=O)c3ccccc3)CC2)C1=O (stereo unspecified)	0.953	
O=C(/C=C/c1cccnc1)N1CC[C@@H](N2CCN(c3ccccc3F)CC2)[C@H](O)C1	1.02	
Cc1nnc(-c2cccc(NC(=O)C3CCN(C(=O)c4ccnn4C)CC3)c2)s1	0.893	
CC(=O)c1ccc(F)c(-c2cc(C)cc3c2OC(CNC(=O)c2ccccc2F)C3)c1 (stereo unspecified)		0.006

Ordered by length of the SMILES (rising): some entries from above
SMILES	bacterial growth OD600 (polymyxin B 1 µg/mL)	bacterial growth OD600 (polymyxin B 0.75 µg/mL)
CN1CCCC(O)(CN2CCC(C(=O)c3ccccc3)CC2)C1=O (stereo unspecified)	0.953	
O=C(NCC1CCCN(Cc2cc3c(cc2Cl)OCO3)C1)c1cccs1 (stereo unspecified)	0.877	
Cc1nnc(-c2cccc(NC(=O)C3CCN(C(=O)c4ccnn4C)CC3)c2)s1	0.893	
